In US4077999A, “Novel oxime ethers” (Egyt Gyogyszervegyeszeti Gyar, priority 1976, dated 1978):

Key:
ischiadic nerve of rats = test: Local analgesic effect (method of Truant and d'Amato), motor paralysis and its duration; type: in vivo; details: referred to Lidocaine
Source text: The local analgesic effect was investigated on the ischiadic nerve of rats by means of the method of Truant and d'Amato (Truant, A.P. and Wiedling, S.: Acta Chirurg. Scand. 116, 351 /1958/). Lidocaine served as reference substance.
In Table I below, the relative efficiency referred to Lidocaine and the duration of the effect on application of 0.5 % and 1.0 % concentrations of Lidocaine are given. […]

in vivo = details: oral administration, Table I

CCN(CC)CC(=O)Nc1c(C)cccc1C [Lidocaine, reference compound]
Relative efficiency (ischiadic nerve of rats): 1.0 | LD50 (in vivo): 220 mg/kg
